Laboratory results from article PMC3959197.
These are yes or no findings as the source states them, for the method shown. In cells and extracts the contact can be indirect.

Target: MyD88^ΔCTE (Drosophila)
Assay: co-IP; S2 cells co-transfected, lysed 48 h after transfection (150 mM NaCl, 50 mM Tris-HCl pH 7.4, 10% glycerol, 0.5% Triton X-100); immunoprecipitated with anti-Myc beads, immunoblot (Fig. 4b, 5f)

binding: no binding
B1: Drosophila Pellino (enzyme, UniProt O77237 1-424)
chain: MVKRTDGTESPILAEDGGDGHDKPRLRYGELVILGYNGYLPQGDRGRRRSKFVLHKRTEASGVKRSKHYIVQSPQTSKAILDANQHSISYTLSRNQAVIVEYKEDTETDMFQVGRSSESPIDFVVMDTLPGDKKDAKVMQSTISRFACRILVNRCEPAKARIFAAGFDSSRNIFLGEKATKWQDNVEIDGLTTNGVLIMHPKGSFCGGNAKCGLWRECSVGGDVFSLRESRSAQQKGQPIYDECNILQDGTLIDLCGATLLWRSAEGLQHSPTKHDLEKLIDAINAGRPQCPVGLNTLVIPRKVNIGDQVNQPYVYLNCGHVQGHHDWGQDENTGARRCPMCLELGPVVTLCMGLEPAFYVDVGAPTYAFNPCGHMATEKTVKYWANVEIPHGTNGFQAVCPFCATPLDGATGYIKLIFQDNLD
